Assay [1] concerns the target FOXO1 (human (endogenous in MAVER1 and CCMCL1)) (UniProt Q12778). As to the kind of experiment: proximity ligation; mock-treated MAVER1 or CCMCL1 cells, cytospin, fixed with 4% paraformaldehyde, 0.2% Triton X-100; anti-FOXO1 and anti-p300 primary antibodies, Duolink In Situ Red; mean fluorescence intensity per nucleus.
The target in assay [2] is 3× FLAG-tagged FOXO1 (human) (UniProt Q12778). As to the kind of experiment: co-IP; protein extracts (0.8 mg) incubated with anti-FLAG magnetic beads, normal IgG as control, 12 h at 4°C; mock-treated and cpd10-treated cells compared.
The target in assay [3] is FOXO1 (human (endogenous in MAVER1 and CCMCL1)) (UniProt Q12778). As to the kind of experiment: proximity ligation; MAVER1 or CCMCL1 cells treated with 2 μM cpd10, cytospin, fixed with 4% paraformaldehyde, 0.2% Triton X-100; anti-FOXO1 and anti-p300 primary antibodies, Duolink In Situ Red; mean fluorescence intensity per nucleus.

By UniProt entry, the sequences of proteins in these tests, tags left out.
UniProt Q12778: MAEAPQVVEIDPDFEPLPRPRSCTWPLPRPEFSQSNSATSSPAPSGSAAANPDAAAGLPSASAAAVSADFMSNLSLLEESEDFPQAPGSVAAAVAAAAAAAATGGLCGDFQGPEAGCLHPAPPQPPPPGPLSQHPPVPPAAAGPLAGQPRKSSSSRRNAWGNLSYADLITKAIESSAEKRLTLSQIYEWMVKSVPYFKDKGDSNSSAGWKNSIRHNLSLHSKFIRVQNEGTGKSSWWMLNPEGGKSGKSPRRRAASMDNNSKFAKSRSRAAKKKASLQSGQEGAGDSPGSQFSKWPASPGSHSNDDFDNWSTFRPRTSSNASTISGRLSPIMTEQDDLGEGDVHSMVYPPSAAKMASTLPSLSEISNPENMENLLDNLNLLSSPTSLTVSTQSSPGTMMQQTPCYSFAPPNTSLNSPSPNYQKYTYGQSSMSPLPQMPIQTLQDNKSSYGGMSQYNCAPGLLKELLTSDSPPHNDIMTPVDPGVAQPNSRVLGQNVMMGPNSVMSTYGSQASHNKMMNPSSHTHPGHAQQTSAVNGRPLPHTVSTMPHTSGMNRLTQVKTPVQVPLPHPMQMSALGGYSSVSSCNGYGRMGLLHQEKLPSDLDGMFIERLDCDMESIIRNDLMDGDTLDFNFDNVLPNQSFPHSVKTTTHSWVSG
UniProt Q09472: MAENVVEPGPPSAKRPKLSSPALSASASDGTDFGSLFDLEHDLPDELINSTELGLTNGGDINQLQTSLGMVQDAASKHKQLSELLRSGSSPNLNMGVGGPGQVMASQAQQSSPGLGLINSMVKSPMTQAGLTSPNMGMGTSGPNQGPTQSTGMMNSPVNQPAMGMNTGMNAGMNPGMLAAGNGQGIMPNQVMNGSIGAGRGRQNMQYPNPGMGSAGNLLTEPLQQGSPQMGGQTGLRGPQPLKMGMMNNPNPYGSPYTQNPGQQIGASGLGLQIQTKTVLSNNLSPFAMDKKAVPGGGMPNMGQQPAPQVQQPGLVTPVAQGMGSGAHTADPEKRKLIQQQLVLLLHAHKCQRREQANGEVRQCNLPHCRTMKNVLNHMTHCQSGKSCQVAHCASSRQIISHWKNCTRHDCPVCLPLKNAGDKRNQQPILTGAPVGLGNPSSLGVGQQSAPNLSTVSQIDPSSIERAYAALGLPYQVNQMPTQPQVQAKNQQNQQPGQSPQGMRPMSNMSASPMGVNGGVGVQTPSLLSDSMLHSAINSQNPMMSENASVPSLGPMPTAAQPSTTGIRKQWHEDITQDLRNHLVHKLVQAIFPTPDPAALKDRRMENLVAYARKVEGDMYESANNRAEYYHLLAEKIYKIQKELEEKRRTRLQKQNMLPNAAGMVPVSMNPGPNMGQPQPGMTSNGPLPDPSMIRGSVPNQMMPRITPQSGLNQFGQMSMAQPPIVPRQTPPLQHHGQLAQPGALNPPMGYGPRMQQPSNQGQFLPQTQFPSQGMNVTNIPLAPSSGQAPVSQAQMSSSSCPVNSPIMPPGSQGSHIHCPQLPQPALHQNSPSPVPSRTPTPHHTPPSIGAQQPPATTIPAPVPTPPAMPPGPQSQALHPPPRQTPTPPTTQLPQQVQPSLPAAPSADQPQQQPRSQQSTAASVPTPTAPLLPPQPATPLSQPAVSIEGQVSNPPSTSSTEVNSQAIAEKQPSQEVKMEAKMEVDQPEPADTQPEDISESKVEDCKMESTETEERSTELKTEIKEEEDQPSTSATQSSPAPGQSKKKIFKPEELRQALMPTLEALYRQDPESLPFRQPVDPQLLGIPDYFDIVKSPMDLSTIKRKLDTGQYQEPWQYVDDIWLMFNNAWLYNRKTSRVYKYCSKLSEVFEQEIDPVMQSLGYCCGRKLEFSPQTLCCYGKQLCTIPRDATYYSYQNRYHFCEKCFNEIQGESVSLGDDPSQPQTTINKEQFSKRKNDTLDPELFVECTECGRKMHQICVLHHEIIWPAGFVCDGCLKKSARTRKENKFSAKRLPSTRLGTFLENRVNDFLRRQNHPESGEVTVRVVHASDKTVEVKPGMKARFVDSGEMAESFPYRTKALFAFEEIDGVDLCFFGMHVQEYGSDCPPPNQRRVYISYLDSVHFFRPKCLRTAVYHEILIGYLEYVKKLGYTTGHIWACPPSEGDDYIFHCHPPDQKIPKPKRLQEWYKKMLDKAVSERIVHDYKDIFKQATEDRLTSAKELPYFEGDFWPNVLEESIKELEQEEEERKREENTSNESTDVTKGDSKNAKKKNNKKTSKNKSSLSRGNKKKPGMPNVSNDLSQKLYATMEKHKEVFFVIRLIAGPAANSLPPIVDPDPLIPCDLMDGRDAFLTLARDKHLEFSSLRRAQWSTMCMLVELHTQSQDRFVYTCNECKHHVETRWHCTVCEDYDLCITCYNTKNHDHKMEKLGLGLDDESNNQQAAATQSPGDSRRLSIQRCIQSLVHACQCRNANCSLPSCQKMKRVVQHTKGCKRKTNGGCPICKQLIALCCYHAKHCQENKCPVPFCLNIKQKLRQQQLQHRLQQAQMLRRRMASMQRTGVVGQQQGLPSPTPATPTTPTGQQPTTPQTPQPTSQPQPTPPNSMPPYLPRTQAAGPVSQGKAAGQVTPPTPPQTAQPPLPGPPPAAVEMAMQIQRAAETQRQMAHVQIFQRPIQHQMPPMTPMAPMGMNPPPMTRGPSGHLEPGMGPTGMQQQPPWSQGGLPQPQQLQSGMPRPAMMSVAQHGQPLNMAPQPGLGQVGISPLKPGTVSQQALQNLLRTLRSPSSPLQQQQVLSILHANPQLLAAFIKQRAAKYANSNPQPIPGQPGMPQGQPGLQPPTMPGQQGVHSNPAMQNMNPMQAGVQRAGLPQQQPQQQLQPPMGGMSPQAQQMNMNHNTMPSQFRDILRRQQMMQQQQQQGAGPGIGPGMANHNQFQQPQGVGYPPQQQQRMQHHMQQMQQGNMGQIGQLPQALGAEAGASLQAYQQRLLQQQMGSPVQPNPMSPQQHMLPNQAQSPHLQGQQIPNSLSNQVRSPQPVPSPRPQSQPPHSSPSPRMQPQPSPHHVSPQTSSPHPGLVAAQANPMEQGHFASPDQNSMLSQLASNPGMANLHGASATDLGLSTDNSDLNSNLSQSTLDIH

These are yes or no findings as the source states them, for the method shown. In cells and extracts the contact can be indirect. Some entries that bind do so weakly or less than the wild type.

For p300 (from UniProt Q09472 1-2414), the binding result in assay [1] was “binds”; in assay [2], “binds”; in assay [3] it was “no binding (condition: with 2 μM cpd10)”.

For the origin of these results see PMC9753996.
